According to the supplement of paper PMC6411743:
± gives the standard deviation of the averaged measurements. Some of the results follow.

Sequences of proteins named here, by UniProt entry; tags and fusion partners are left off. A change or cut given only in a name is not applied to a line headed by its entry.
UniProt Q92625: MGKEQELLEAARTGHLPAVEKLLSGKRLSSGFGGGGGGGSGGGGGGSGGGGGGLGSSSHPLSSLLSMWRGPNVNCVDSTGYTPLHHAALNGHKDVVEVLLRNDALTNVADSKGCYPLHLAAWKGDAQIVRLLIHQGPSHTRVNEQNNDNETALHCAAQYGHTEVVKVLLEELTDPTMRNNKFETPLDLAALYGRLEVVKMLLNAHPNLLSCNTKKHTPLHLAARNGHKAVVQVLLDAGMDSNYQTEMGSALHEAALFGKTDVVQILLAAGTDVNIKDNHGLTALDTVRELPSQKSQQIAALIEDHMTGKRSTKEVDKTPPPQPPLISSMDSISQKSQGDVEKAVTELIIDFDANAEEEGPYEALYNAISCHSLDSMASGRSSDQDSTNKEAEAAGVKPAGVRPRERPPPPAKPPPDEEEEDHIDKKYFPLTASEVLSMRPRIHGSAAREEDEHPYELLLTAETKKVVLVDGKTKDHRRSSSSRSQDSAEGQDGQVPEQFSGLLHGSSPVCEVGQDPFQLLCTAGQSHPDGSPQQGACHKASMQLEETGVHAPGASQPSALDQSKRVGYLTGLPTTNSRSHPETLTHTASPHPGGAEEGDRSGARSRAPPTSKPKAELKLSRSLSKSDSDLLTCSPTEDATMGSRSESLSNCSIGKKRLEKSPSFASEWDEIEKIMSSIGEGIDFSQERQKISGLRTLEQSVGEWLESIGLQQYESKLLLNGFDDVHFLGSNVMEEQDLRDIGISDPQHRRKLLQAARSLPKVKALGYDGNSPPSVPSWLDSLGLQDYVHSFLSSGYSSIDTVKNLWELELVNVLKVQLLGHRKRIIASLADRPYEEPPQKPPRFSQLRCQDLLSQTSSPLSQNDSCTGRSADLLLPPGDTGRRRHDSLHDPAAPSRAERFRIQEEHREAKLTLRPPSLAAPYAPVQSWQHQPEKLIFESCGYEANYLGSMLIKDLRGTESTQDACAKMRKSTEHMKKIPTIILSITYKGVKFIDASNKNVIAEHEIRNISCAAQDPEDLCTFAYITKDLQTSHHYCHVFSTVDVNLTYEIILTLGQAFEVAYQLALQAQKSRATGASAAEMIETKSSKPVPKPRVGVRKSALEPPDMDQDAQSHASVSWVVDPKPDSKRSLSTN
UniProt Q8WUM4: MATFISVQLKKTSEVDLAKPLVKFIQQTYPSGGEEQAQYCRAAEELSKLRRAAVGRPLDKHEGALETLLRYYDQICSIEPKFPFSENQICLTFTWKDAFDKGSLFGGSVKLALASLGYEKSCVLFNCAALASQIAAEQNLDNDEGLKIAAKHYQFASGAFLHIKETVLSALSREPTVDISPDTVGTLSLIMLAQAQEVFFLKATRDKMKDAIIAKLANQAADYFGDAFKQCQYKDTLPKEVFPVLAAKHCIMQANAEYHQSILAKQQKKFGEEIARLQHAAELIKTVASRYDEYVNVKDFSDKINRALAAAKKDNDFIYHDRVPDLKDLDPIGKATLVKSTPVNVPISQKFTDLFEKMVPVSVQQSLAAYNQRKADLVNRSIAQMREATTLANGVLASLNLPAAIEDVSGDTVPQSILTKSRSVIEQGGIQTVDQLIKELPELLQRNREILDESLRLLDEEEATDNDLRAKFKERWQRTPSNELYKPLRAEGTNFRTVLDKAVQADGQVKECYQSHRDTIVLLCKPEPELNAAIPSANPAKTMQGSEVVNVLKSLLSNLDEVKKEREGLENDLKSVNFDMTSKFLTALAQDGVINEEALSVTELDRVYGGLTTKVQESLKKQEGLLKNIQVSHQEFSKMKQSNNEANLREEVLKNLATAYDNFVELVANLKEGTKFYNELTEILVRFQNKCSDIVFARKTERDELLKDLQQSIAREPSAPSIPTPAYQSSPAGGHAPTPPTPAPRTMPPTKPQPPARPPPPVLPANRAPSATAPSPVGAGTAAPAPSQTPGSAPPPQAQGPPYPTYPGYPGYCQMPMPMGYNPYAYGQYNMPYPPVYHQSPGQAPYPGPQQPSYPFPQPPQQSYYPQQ
UniProt Q96AE7: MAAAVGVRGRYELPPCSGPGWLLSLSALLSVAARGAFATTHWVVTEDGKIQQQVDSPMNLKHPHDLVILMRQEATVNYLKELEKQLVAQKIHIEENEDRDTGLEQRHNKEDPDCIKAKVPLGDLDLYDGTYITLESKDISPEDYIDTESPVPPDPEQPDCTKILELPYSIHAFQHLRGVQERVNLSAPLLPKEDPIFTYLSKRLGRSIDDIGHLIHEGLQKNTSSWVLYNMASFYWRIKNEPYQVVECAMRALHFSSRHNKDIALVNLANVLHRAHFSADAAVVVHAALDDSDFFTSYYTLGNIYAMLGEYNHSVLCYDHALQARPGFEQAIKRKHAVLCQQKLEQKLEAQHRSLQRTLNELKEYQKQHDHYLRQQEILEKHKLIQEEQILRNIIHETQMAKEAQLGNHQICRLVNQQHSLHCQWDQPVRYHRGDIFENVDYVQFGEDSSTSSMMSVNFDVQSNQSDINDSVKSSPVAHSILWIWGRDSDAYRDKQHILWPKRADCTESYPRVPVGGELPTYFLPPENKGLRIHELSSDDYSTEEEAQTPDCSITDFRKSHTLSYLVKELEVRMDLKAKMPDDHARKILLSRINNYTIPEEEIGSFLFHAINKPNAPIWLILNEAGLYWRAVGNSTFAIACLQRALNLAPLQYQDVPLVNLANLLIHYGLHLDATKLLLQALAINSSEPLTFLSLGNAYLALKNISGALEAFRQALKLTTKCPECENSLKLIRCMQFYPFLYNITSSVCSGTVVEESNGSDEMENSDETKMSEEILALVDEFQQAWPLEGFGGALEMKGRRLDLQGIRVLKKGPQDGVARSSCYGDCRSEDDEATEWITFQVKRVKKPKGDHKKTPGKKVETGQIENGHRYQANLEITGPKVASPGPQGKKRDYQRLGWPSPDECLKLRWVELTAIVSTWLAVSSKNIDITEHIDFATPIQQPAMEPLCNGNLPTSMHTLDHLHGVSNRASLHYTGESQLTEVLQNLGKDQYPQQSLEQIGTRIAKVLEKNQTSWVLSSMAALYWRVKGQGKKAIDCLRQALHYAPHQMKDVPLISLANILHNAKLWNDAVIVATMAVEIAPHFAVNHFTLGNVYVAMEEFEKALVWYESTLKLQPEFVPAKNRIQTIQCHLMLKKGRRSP
UniProt Q8WVK2: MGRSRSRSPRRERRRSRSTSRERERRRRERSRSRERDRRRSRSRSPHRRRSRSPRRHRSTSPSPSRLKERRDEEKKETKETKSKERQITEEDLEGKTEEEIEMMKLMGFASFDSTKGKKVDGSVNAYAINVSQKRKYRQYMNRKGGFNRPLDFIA
UniProt Q96CX6, whole entry: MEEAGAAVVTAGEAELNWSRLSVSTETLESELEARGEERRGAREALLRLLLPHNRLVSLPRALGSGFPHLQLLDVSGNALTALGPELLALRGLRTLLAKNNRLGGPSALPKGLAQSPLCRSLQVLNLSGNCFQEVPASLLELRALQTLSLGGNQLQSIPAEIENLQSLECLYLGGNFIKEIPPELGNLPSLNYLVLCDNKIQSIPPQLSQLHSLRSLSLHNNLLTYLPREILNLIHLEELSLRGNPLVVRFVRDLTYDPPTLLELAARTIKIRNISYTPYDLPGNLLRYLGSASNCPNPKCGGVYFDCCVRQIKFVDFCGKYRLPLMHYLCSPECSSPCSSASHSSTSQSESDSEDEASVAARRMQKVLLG
UniProt Q96FX2: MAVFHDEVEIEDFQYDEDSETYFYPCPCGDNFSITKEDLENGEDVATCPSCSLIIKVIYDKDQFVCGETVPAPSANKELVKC
UniProt Q96EU6: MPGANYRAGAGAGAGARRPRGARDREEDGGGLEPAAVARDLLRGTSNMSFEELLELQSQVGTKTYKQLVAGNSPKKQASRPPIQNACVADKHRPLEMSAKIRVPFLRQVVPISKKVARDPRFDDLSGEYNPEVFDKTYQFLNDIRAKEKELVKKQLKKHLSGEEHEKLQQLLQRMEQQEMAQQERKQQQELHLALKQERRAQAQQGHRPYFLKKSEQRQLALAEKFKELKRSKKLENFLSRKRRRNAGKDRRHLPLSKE
UniProt Q92793, whole entry, looked up: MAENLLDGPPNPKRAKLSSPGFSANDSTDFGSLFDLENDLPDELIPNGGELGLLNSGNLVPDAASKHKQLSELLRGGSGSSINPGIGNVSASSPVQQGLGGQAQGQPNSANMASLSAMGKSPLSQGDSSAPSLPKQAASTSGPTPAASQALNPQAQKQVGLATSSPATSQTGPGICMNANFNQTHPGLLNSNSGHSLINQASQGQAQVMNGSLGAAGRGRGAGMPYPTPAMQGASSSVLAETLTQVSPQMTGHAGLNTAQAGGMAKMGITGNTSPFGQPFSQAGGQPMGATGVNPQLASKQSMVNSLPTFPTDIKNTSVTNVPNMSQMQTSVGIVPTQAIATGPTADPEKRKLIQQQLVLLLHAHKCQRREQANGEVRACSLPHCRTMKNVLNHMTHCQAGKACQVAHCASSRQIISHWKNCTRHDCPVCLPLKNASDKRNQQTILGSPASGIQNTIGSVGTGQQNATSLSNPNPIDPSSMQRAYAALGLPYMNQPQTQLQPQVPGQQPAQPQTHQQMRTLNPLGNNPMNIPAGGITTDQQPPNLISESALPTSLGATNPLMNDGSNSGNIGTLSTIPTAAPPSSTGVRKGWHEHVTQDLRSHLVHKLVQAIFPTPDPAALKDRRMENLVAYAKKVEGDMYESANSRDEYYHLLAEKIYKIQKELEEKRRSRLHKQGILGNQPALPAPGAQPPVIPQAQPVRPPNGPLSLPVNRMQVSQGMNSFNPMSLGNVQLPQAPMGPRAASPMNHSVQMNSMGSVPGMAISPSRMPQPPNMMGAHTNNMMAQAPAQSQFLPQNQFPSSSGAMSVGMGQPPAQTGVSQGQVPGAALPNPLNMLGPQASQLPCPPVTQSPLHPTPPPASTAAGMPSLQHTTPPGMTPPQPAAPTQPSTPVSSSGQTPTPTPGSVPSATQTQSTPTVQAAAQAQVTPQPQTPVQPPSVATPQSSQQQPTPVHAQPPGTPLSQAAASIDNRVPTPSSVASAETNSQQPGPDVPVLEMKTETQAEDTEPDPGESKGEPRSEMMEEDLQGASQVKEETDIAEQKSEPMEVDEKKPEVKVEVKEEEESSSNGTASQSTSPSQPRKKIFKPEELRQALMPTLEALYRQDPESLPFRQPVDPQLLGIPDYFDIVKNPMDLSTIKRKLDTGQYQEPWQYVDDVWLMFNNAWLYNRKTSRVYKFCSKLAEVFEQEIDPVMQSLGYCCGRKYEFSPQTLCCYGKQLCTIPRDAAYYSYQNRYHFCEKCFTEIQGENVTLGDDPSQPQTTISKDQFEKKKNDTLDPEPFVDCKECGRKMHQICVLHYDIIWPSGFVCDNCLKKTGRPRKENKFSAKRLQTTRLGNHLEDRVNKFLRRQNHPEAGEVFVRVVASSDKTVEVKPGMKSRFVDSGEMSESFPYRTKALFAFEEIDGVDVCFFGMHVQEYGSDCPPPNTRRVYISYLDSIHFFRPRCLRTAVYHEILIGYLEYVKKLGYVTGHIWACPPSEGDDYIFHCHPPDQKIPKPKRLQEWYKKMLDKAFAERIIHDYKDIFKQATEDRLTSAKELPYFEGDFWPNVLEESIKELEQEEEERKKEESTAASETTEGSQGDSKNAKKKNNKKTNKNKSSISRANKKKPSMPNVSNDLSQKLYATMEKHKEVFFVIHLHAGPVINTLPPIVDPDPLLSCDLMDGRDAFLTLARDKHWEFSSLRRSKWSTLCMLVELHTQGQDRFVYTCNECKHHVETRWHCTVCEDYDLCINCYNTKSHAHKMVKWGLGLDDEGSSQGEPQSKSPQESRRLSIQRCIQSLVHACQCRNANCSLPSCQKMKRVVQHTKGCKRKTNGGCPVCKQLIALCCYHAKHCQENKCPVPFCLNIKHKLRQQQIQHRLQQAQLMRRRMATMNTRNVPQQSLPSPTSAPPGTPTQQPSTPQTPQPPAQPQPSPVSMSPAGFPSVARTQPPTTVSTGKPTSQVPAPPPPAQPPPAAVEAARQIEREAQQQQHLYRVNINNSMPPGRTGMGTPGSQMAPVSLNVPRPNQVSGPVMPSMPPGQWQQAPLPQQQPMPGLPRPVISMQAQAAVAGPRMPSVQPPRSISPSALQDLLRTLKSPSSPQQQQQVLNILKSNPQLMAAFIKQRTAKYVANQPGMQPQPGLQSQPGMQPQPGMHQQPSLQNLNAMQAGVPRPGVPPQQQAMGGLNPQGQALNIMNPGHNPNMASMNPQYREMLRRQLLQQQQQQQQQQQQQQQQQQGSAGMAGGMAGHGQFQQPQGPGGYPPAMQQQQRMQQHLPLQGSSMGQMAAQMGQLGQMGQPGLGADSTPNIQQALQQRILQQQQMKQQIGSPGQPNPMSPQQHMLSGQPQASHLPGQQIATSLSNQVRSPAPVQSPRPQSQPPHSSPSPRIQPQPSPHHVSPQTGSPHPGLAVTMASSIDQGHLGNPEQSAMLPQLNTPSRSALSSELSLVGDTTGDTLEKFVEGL

Compound: Nc1nc2c(ncn2[C@@H]2O[C@H](COP(=O)(O)OP(=O)(O)OP(=O)(O)O)[C@@H](O)[C@H]2O)c(=O)[nH]1 [guanosine triphosphate]
Assay: NP40-soluble protein abundance relative to vehicle (solubility fold change) (ratio); higher = more soluble protein in presence of GTP
Procedure, shortened: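 Each value is a fold change relative to the detergent-processed vehicle, calculated per replicate from vsn-normalised intensities. Jurkat crude lysate received eight concentrations (0.1 to 10 mM) for 10 min at room temperature and 3 min at 37 °C, then was solubilised in 0.8% NP40 with benzonase (60 min, 4 °C). The ultracentrifuged supernatant was TMT-labelled and run by LC-MS/MS in three independent experiments.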

| Target | NP40-soluble protein abundance (concentration: 0.1mM) | NP40-soluble protein abundance (concentration: 0.5mM) | NP40-soluble protein abundance (concentration: 1mM) | NP40-soluble protein abundance (concentration: 2mM) | NP40-soluble protein abundance (concentration: 4mM) | NP40-soluble protein abundance (concentration: 6mM) | NP40-soluble protein abundance (concentration: 8mM) | NP40-soluble protein abundance (concentration: 10mM) |
| --- | --- | --- | --- | --- | --- | --- | --- | --- |
| ANKS1A (UniProt Q92625) | 0.981 ± 0.045 | 0.985 ± 0.065 | 0.999 ± 0.025 | 0.974 ± 0.046 | 0.968 ± 0.03 | 1 ± 0.062 | 0.967 ± 0.029 | 0.971 ± 0.046 |
| SIPA1 (UniProt Q96FS4) | 1.03 ± 0.12 | 1.03 ± 0.079 | 1.08 ± 0.057 | 1.12 ± 0.1 | 1.09 ± 0.14 | 1.22 ± 0.15 | 1.26 ± 0.079 | 1.13 ± 0.067 |
| PDCD6IP (UniProt Q8WUM4) | 0.945 ± 0.046 | 0.957 ± 0.053 | 0.943 ± 0.061 | 0.889 ± 0.075 | 0.873 ± 0.084 | 0.895 ± 0.064 | 0.904 ± 0.053 | 0.883 ± 0.07 |
| UniProt Q96AE7 and related entries | 0.994 ± 0.053 | 0.985 ± 0.084 | 1.16 ± 0.067 | 1.21 ± 0.056 | 1 ± 0.095 | 1.12 ± 0.089 | 1.07 ± 0.037 | 1.04 ± 0.021 |
| UniProt Q8WVK2 and related entries | 0.99114 ± 6.7e-05 | 1.12 ± 0.018 | 1.12 ± 0.023 | 1.08 ± 0.068 | 1.07 ± 0.012 | 1.07 ± 0.095 | 1.16 ± 0.11 | 1.18 ± 0.098 |
| LRRC58 (UniProt Q96CX6) | 0.999 ± 0.054 | 0.971 ± 0.033 | 0.919 ± 0.037 | 0.908 ± 0.047 | 0.907 ± 0.049 | 0.869 ± 0.043 | 0.872 ± 0.08 | 0.847 ± 0.037 |
| DPH3 (UniProt Q96FX2) | 0.8598 ± 0.0067 | 0.911 ± 0.16 | 0.728 ± 0.012 | 0.925 ± 0.15 | 0.878 ± 0.075 | 0.886 ± 0.15 | 0.869 ± 0.063 | 0.978 ± 0.17 |
| UniProt Q92859 and related entries | 1.02 ± 0.037 | 0.905 ± 0.029 | 1.01 ± 0.022 | 0.969 ± 0.052 | 0.981 ± 0.074 | 0.942 ± 0.13 | 0.957 ± 0.053 | 0.943 ± 0.061 |
| MRPL38 (UniProt Q96DV4) | 1.11 ± 0.12 | 1.15 ± 0.27 | 1.32 ± 0.43 | 1.43 ± 0.45 | 1.49 ± 0.37 | 1.41 ± 0.5 | 1.44 ± 0.52 | 1.32 ± 0.45 |
| MRPS31 (UniProt Q92665) | 1.04 ± 0.11 | 1.11 ± 0.12 | 1.23 ± 0.26 | 1.28 ± 0.25 | 1.31 ± 0.31 | 1.24 ± 0.28 | 1.26 ± 0.31 | 1.21 ± 0.31 |
| SLC44A1 (UniProt Q8WWI5) | 0.943 ± 0.066 | 0.931 ± 0.078 | 0.926 ± 0.061 | 0.894 ± 0.093 | 0.934 ± 0.07 | 0.879 ± 0.1 | 0.899 ± 0.1 | 0.938 ± 0.08 |
| UniProt Q96EU6 and related entries | 1.04 ± 0.12 | 1.1 ± 0.19 | 1.15 ± 0.18 | 1.25 ± 0.25 | 1.33 ± 0.17 | 1.44 ± 0.062 | 1.33 ± 0.032 | 1.42 ± 0.061 |
| CREBBP (UniProt Q92793) | 1.1 ± 0.09 | 1.08 ± 0.043 | 1.052 ± 0.0086 | 1.03 ± 0.2 | 1.06 ± 0.086 | 0.998 ± 0.059 | 1.09 ± 0.025 | 0.995 ± 0.097 |
| GLMN (UniProt Q92990) | 1.02 ± 0.084 | 0.988 ± 0.048 | 0.964 ± 0.063 | 0.968 ± 0.059 | 0.941 ± 0.09 | 0.938 ± 0.082 | 0.904 ± 0.065 | 0.888 ± 0.082 |
| MMAB (UniProt Q96EY8) | 0.943 ± 0.074 | 0.892 ± 0.071 | 0.943 ± 0.046 | 0.904 ± 0.088 | 0.931 ± 0.054 | 0.949 ± 0.073 | 0.924 ± 0.077 | 0.923 ± 0.081 |

Another view of part of the listing above:
Target,NP40-soluble protein abundance (concentration: 0.1mM),NP40-soluble protein abundance (concentration: 0.5mM),NP40-soluble protein abundance (concentration: 1mM),NP40-soluble protein abundance (concentration: 2mM),NP40-soluble protein abundance (concentration: 4mM),NP40-soluble protein abundance (concentration: 6mM),NP40-soluble protein abundance (concentration: 8mM),NP40-soluble protein abundance (concentration: 10mM)
UniProt Q92859 and related entries,1.02 ± 0.037,0.905 ± 0.029,1.01 ± 0.022,0.969 ± 0.052,0.981 ± 0.074,0.942 ± 0.13,0.957 ± 0.053,0.943 ± 0.061
CREBBP (UniProt Q92793),1.1 ± 0.09,1.08 ± 0.043,1.052 ± 0.0086,1.03 ± 0.2,1.06 ± 0.086,0.998 ± 0.059,1.09 ± 0.025,0.995 ± 0.097
